# Laboratory results as given in the supplement of paper PMC12823440, “Inhibitors supercharge kinase turnover through native proteolytic circuits” (Nature, 2025).
# Protein sequences, listed by entry. Tags and fused reporters are not part of them. Lines headed by an entry give the natural chain unless they say otherwise; changes in a name come on top.
# UniProt P14616: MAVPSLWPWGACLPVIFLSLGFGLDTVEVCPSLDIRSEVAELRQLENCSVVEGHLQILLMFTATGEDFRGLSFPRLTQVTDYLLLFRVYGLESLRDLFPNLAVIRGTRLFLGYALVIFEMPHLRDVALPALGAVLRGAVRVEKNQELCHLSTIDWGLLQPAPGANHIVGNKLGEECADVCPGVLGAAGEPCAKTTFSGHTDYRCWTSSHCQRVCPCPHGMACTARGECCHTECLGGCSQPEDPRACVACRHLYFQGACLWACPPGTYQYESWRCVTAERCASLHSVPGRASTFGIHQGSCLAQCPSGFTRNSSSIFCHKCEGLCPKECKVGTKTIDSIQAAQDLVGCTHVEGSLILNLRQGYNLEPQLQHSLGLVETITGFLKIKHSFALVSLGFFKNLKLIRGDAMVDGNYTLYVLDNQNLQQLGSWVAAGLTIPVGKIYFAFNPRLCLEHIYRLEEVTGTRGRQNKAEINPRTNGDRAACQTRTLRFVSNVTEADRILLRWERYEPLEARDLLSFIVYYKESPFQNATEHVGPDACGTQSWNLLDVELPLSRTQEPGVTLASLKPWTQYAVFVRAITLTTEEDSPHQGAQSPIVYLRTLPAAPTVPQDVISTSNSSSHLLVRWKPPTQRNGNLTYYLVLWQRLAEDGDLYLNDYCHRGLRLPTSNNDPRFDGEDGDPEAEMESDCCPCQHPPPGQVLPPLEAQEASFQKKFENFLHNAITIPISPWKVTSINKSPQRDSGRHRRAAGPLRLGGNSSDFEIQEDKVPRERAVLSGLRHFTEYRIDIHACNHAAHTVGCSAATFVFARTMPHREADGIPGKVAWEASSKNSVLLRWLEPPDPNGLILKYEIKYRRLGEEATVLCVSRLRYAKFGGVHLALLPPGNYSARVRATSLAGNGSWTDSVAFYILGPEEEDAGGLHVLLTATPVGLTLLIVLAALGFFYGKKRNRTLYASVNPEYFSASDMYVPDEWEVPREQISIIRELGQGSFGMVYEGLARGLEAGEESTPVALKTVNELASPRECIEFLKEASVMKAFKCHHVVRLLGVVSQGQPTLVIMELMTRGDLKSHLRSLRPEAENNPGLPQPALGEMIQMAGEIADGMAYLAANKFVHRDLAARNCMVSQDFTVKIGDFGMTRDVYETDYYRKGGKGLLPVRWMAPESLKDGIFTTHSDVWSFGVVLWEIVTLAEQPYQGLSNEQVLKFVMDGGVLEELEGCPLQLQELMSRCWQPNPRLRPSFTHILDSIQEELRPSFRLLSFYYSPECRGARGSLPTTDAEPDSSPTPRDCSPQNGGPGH
# UniProt Q9Y616: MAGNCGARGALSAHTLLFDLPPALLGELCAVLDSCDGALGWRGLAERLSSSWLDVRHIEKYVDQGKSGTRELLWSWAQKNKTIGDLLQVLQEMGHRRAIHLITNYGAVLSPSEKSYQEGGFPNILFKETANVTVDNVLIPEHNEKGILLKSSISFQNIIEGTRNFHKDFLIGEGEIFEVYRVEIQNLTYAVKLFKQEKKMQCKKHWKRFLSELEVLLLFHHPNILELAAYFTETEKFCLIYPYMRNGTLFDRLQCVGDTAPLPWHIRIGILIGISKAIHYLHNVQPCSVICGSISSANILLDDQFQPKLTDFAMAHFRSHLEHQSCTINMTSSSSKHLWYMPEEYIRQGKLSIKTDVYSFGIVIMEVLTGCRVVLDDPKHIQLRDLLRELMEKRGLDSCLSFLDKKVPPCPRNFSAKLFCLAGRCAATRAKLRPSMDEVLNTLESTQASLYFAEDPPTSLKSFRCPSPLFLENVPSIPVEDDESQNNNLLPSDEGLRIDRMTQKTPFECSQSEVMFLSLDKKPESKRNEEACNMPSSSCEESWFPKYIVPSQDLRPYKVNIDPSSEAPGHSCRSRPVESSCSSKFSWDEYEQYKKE
# UniProt P53671: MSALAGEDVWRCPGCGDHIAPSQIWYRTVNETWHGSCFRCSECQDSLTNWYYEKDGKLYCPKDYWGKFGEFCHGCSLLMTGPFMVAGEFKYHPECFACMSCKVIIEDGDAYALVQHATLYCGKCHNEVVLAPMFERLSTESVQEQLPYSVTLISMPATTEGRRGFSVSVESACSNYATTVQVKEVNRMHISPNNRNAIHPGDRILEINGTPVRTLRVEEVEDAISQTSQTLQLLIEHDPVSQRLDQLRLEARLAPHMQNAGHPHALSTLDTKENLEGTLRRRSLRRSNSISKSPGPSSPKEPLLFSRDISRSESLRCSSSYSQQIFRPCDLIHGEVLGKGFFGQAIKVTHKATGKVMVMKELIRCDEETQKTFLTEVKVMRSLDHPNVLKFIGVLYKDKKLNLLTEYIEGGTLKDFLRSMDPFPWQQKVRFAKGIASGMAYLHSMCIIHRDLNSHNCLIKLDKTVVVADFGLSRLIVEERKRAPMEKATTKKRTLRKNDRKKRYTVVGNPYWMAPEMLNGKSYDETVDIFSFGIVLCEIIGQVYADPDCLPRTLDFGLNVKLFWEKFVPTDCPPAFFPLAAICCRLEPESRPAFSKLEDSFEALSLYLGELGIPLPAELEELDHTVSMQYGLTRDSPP
# UniProt Q8IWU2: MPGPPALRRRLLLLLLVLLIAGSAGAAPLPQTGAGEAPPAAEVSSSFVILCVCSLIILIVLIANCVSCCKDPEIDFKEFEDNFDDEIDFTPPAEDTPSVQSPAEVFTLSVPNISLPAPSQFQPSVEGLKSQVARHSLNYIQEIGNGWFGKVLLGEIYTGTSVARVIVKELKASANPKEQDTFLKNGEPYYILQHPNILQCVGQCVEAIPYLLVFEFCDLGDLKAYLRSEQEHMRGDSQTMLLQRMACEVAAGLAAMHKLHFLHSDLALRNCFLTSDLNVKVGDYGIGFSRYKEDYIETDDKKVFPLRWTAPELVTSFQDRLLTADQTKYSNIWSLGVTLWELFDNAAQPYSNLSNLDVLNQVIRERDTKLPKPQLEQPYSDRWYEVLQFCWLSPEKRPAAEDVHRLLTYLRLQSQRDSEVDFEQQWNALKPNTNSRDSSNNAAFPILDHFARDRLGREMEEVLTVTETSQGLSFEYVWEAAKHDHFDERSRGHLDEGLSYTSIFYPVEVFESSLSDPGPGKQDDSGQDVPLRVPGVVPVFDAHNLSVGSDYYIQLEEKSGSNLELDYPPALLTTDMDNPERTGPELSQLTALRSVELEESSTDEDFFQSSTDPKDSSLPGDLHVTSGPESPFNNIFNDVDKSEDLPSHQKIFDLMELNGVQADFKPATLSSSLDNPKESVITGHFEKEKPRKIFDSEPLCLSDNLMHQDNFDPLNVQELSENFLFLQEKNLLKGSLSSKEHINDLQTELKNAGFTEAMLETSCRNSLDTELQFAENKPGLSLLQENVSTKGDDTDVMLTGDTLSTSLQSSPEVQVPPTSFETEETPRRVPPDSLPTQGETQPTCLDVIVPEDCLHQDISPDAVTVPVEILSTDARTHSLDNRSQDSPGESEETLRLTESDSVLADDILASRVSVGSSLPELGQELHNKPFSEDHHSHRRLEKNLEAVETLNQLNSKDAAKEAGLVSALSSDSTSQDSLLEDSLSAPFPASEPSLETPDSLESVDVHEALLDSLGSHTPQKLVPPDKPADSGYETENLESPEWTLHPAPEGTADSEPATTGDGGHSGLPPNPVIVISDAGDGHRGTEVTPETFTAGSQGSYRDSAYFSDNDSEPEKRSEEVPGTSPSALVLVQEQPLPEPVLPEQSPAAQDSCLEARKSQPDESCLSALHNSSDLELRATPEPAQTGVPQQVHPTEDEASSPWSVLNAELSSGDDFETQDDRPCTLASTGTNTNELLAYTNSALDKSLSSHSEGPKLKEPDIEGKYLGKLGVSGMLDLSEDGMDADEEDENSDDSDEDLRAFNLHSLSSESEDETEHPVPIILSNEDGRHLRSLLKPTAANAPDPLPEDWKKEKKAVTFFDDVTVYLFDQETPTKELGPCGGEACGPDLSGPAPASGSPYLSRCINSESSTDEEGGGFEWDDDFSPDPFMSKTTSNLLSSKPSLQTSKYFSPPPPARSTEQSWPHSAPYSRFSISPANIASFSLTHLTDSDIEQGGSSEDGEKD
# UniProt P07948: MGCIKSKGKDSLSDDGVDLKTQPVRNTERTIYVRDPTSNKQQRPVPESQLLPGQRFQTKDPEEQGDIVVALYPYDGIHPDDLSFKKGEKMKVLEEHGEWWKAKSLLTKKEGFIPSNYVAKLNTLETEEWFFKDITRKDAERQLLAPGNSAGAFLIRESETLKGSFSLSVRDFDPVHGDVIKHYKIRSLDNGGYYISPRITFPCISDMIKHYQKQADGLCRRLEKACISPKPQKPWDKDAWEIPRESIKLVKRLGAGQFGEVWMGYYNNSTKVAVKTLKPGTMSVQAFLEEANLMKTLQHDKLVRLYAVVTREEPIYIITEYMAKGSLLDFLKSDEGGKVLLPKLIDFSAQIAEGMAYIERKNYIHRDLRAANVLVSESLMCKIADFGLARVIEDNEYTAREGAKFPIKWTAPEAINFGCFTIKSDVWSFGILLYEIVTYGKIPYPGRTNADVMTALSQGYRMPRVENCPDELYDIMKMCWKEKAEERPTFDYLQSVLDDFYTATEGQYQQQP
# UniProt Q12851: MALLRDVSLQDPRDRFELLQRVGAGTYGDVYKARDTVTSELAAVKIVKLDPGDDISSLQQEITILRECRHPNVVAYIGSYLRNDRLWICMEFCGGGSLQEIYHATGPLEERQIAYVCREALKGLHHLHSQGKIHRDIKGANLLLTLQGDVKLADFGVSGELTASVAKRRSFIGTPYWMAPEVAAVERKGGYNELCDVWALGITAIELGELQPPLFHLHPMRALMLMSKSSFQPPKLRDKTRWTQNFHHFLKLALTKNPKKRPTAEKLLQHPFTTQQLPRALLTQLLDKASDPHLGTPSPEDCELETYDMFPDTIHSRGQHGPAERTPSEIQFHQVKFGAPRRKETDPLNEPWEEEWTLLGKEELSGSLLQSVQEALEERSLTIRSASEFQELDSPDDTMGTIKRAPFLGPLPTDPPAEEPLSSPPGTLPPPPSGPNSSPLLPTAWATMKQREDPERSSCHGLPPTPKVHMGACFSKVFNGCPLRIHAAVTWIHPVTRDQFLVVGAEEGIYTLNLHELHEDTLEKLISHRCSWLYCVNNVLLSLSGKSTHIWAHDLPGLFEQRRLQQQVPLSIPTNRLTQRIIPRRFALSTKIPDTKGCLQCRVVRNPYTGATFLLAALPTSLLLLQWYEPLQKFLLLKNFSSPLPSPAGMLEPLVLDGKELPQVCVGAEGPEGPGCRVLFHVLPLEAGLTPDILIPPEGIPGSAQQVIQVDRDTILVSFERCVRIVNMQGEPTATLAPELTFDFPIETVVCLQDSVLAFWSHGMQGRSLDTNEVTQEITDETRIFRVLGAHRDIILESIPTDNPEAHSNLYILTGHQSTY
# UniProt P28482, whole entry: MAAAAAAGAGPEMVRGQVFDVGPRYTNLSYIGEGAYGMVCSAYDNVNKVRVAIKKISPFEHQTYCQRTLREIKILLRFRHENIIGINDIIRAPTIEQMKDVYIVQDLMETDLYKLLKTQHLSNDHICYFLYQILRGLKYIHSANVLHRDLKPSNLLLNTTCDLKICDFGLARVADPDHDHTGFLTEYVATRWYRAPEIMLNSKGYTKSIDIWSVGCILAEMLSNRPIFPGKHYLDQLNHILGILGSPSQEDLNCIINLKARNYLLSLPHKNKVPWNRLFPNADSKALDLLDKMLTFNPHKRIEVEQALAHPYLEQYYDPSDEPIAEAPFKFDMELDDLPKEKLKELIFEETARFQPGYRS
# UniProt P49137, whole entry, looked up: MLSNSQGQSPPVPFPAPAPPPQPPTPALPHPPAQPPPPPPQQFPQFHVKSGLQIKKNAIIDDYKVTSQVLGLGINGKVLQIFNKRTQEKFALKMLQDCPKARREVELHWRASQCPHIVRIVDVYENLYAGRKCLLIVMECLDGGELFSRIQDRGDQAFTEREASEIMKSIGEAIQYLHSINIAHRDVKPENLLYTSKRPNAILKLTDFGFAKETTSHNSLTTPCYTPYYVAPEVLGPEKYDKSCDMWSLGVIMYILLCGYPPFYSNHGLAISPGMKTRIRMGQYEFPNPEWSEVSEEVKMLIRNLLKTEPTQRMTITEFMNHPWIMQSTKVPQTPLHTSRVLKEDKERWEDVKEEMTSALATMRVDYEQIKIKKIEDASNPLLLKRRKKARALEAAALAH
# UniProt Q9BUB5: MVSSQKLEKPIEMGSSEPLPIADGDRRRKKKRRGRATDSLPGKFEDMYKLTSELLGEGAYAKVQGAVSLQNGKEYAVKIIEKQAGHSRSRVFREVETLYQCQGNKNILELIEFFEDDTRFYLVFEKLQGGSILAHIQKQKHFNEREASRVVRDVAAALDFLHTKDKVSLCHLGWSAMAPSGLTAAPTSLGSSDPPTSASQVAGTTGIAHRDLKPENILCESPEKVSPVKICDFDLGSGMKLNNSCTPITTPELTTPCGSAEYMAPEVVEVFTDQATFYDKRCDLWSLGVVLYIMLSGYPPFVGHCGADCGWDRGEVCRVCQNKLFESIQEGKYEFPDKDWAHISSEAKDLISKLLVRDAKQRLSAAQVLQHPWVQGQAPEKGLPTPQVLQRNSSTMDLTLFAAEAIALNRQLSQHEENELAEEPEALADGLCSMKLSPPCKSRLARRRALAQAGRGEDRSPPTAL
# Counter-ions that a name gives are not always drawn. This is one part of the list. The calls rarely recur for the same compound in another form.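 In K562 cells expressing nanoluciferase-fused kinases, luminescence was recorded at 4 h intervals between 2 and 18 h, normalized as percent of control with DMSO at 100% and a positive control at 0%. A significant (2 sigma) signal drop marks a time point as decreased. The authors' rule for a hit is not shown and takes in more than the number of time points.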
# Assays:
# Experiment in all cases: number of time points (of 5) at which kinase-Nluc abundance scored as decreased, DMSO-normalised (count); higher = more persistent destabilization
# Conditions in all cases: K562; 2-18 h
# [1] = target: FYN (UniProt P06241)
# [2] = target: GSK3A (UniProt P49840)
# [3] = target: HER2 (UniProt P04626)
# [4] = target: INSRR (UniProt P14616)
# [5] = target: IRAK3 (UniProt Q9Y616)
# [6] = target: JAK1 (UniProt P23458)
# [7] = target: LCK (UniProt P06239)
# [8] = target: LIMK1 (UniProt P53667)
# [9] = target: LIMK2 (UniProt P53671)
# [10] = target: LMTK2 (UniProt Q8IWU2)
# [11] = target: LYN (UniProt P07948)
# [12] = target: MAP2K1 (UniProt Q02750)
# [13] = target: MAP2K2 (UniProt P36507)
# [14] = target: MAP4K2 (UniProt Q12851)
# [15] = target: MAPK1 (UniProt P28482)
# [16] = target: MAPK4 (UniProt P31152)
# [17] = target: MAPKAPK2 (UniProt P49137)
# [18] = target: MKNK1 (UniProt Q9BUB5)
# [19] = target: NTRK2 (UniProt Q16620)
# [20] = target: FLT3 (UniProt P36888)
Structure (SMILES),number of time points [1],number of time points [2],number of time points [3],number of time points [4],number of time points [5],number of time points [6],number of time points [7],number of time points [8],number of time points [9],number of time points [10],number of time points [11],number of time points [12],number of time points [13],number of time points [14],number of time points [15],number of time points [16],number of time points [17],number of time points [18],number of time points [19],number of time points [20]
CCCCNc1ncc(C(=O)NCc2ccc(-n3ccnc3)cc2)c(NC2CCC(O)CC2)n1 (centres undefined) (10 µM),0,0,2,0,0,4,0,0,0,0,0,0,0,0,0,0,0,1,1,
CC(C)n1cnc2c(Nc3cccc(Cl)c3)nc(N[C@H]3CCCC[C@@H]3N)nc21 (2.5 µM),0,0,0,0,0,0,0,0,0,0,0,0,0,0,0,0,0,0,0,0
COc1ccc(Br)c(C=O)c1O [6-Bromo-2-hydroxy-3-methoxybenzaldehyde] (10 µM),,0,0,0,0,0,0,0,0,0,0,0,0,0,0,0,0,0,0,0
CC1=CC(=O)C(C(C)C)=C/C1=N/OC(=O)c1ccccc1C [Poloxin] (2.5 µM),0,0,0,0,0,0,0,0,0,0,0,0,0,0,0,0,0,0,0,0
Nc1[nH]nc2nnc(-c3c(-c4ccccc4)nn4ccccc34)cc12 (10 µM),0,0,0,0,0,0,0,0,0,0,0,0,0,0,,0,0,0,0,0
O=C1CCC(N2C(=O)c3cccc(OCCCCCOc4ccc(CC(=O)Nc5cc(C6CCC6)[nH]n5)cc4)c3C2=O)C(=O)N1 (centres undefined) [PROTAC CDK9 Degrader-1] (10 µM),0,0,0,0,2,0,0,0,0,3,0,0,0,0,0,0,0,0,0,3
Cc1cncc2cccc(S(=O)(=O)N3CCCNC[C@@H]3C)c12 [H-1152 (dihydrochloride)] (10 µM),0,0,0,0,0,0,,0,0,0,0,0,0,0,0,0,0,0,0,0
CN1CCN(Cc2ccc(-c3cn(C4CCC(O)CC4)c4nc(NCCC5CC5)ncc34)cc2)CC1 (centres undefined) (2.5 µM),3,0,1,2,2,0,0,4,3,3,1,0,0,0,0,0,0,1,0,
CCCS(=O)(=O)N[C@H]1C[C@@H](N(C)c2ncnc3[nH]ccc23)C1 [Abrocitinib] (10 µM),0,0,0,0,0,,0,0,0,0,0,0,0,0,0,0,0,0,0,0
